Results on three molecules are retold here after PMC5025857, “Redox-dependent Regulation of Gluconeogenesis by a Novel Mechanism Mediated by a Peroxidatic Cysteine of Peroxiredoxin” (Scientific Reports, 2016).

Chains of the proteins cited; added tags and fusions are not shown.
UniProt P32614: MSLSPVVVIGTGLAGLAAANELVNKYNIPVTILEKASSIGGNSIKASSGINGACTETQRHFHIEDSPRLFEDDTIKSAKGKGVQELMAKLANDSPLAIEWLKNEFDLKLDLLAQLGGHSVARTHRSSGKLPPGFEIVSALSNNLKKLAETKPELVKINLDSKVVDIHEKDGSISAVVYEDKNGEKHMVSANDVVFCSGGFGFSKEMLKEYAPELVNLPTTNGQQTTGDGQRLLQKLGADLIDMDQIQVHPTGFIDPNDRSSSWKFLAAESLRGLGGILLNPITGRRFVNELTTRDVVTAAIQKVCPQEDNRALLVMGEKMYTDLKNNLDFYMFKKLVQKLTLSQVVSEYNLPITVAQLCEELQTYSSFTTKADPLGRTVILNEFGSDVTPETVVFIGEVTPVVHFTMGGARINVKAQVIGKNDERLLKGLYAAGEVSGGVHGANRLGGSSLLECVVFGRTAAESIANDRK

First the molecules themselves.
B1: PI SceI (intein Vde1) (protein, UniProt P17255 284-737)
chain: CFAKGTNVLMADGSIECIENIEVGNKVMGKDGRPREVIKLPRGRETMYSVVQKSQHRAHKSDSSREVPELLKFTCNATHELVVRTPRSVRRLSRTIKGVEYFEVITFEMGQKKAPDGRIVELVKEVSKSYPISEGPERANELVESYRKASNKAYFEWTIEARDLSLLGSHVRKATYQTYAPILYENDHFFDYMQKSKFHLTIEGPKVLAYLLGLWIGDGLSDRATFSVDSRDTSLMERVTEYAEKLNLCAEYKDRKEPQVAKTVNLYSKVVRGNGIRNNLNTENPLWDAIVGLGFLKDGVKNIPSFLSTDNIGTRETFLAGLIDSDGYVTDEHGIKATIKTIHTSVRDGLVSLARSLGLVVSVNAEPAKVDMNGTKHKISYAIYMSGGDVLLNVLSKCAGSKKFRPAPAAAFARECRGFYFELQELKEDDYYGITLSDDSDHQFLLANQVVVHN
B2: Yol057w (dipeptidyl-peptidase III) (enzyme, UniProt Q08225 1-711)
chain: MSHFFADHDAPLSMLSVKTEYFPQLTDKEQKYAHFMSKASHAGSRVVMRQVSHESEPIFDLILAIHSKLNGKYPEDDITQKQQTGLYLEYVSQFLSNLGNFKSFGDTKFIPRCEVKFFKQLLELAKINPCSSPLTLSPVDVNHEFTSHHLFSTINELIDIGIYHVEEKAALLGFPSQGYTSAYYLGLPVTPEDMALLKEQLFAELAILPENTRINKVGENSFQIWVASENVKNQITETYPSGQITLSNAVTKVEFIFGDHSREMRLVASYLKEAQKFAANDTQKAMLQEYINHFVTGSSQAHKEAQKLWVKDISPVIETNIGFIETYREPSGIIGEFESLVAIQNKERTAKFSSLVNNAEEFISLLPWSKDYEKPIFNPPDFTSLEVLTFTGSGIPAGINIPNYDDVRLKIGFKNVSLGNILSAAAKSSSKHPPSFISQEDRPIFEKYQSDSFEVQVGIHELLGHGSGKLLTEFTDGFNFDKENPPLGLDGKPVSTYYKVGETWGSKFGQLAGPFEECRAEVIAMFLLTNKKILDIFGFHDVESQDKVIYAGYLQMARAGLLALEYWNPKTGKWGQPHMQARFSIMKTFMKHSTDKNFLKLEMNSTNDDFAIKLDKSLIKTAGHECVKDYLKHLHVYKCSGDVEQGSKYFIDRSTVTPDLASLRDIVLSKRLPRRQFIQSNSYIDDNNKVTLKEYDETPQGMLQSFLDREL

Results are given in words; binding and its absence hold for the method and conditions named. Binding seen in cells or lysates may run through a third protein. These calls come from enrichment with a bait or labelling near it, and not all partners need be listed. Sequences can lack the tags named with a protein.

The test concerns the target T1, HAT-tagged Tsa1^C171T (S. cerevisiae) (UniProt P34760).
T1 sequence: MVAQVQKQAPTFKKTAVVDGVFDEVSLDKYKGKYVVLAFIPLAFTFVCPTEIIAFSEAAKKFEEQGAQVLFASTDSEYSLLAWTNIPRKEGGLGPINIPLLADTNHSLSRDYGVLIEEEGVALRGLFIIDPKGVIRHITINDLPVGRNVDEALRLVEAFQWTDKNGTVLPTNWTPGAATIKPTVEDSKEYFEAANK
Nature of the test: affinity purification with mass spectrometry; HAT-tagged Tsa1^C171T captured on TALON metal affinity resin from lysate of tsa1Δ cells treated with 0.5 mM H2O2 for 5 min (Buffer L, pH 8.0, 300 mM NaCl, 50 mM NEM); eluate separated by two-dimensional SDS-PAGE (non-reduced, then reduced); spots identified by MALDI-TOF MS.
Consider “Frd1 (soluble fumarate reductase) (from UniProt P32614 1-470) (enzyme)”, for which the binding entry is reported as “binds”. Then B1, with “binds”; and B2, with “binds”.
